Results are given in words; binding and its absence hold for the method and conditions named. In cells and extracts the contact can be indirect. For part of these data: Binding can be weak; no strength is given.
How the values were obtained:
[1] = molecular target: GFP-Ewsr1b synthesized from GFP-Ewsr1b mRNA carrying Short-3′UTR (zebrafish); assay: co-IP
[2] = molecular target: GFP-Ewsr1b synthesized from GFP-Ewsr1b mRNA carrying Long-3′UTR (zebrafish); assay: co-IP
[3] = molecular target: Ewing’s sarcoma RNA binding protein 1b (Ewsr1b) (zebrafish (endogenous in embryos)); assay: proximity ligation

B1: Pou5f3 (protein, UniProt Q90270 1-471)
chain: MTERAQSPTAADCRPYEVNRAMYPQAAGLDGLGGASLQFAHGMLQDPSLIFNKAHFNGITPATAQTFFPFSGDFKTNDLQGGDFTQPKHWYPFAAPEFTGQVAGATAATQPANISPPIGETREQIKMPSEVKTEKDVEEYGNEENKPPSQYHLTAGTSSVPTGVNYYTPWNPNFWPGLSQITAQANISQAPPTPSASSPSLSPSPPGNGFGSPGFFSGGTAQNIPSAQAQSAPRSSGSSSGGCSDSEEETLTTEDLEQFAKELKHKRITLGFTQADVGLALGNLYGKMFSQTTICRFEALQLSFKNMCKLKPLLQRWLNEAENSENPQDMYKIERVFVDTRKRKRRTSLEGTVRSALESYFVKCPKPNTLEITHISDDLGLERDVVRVWFCNRRQKGKRLALPFDDECVEAQYYEQSPPPPPHMGGTVLPGQGYPGPAHPGGAPALYMPSLHRPDVFKNGLHPGLVGHLTS
binding [1]: no binding
binding [2]: binds
binding [3]: binds

Source: paper doi:10.1101/2025.09.18.676998
